# “And” between values parts separate entries of the source, which are not always exact repeats. Identical values can stand only once. This list was built around the results that the source calls inconclusive (neither active nor inactive); the mix of calls is not that of the screen. For some of these results: Where the call is inconclusive, the potency comes from a doubtful curve fit. The source made the active and inactive calls. Unless noted, calls come from the whole dose curve; as a rule, active = well fitted curve in the direction sought with a large enough effect; inconclusive = small, poorly fitted or top-dose-only effect, or another doubt; inactive = no such curve, though single readings can be large; an effect the other way counts as inactive or inconclusive.
# Tests used:
# [1] = Cellular Toxicity (caspase-3) SHSY5Y (AID 657); settings: SH-SY5Y caspase-3 activation, DMSO zero, 10 µM staurosporine = 100%; at 91.7 µM (top of the series)
# How it was run: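 qHTS, SH-SY5Y, 1500 cells/well, 5 h pre-incubation 37 °C; compound 16 h 37 °C; Caspase-Glo 3/7 1 h RT; luminescence. Norm.: DMSO = 0, 10 uM staurosporine = 100%. Hill fit → AC50.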
# [2] = Cell Viability - LYMP1-003 - Assay at 40 hr (AID 964); settings: LYMP1-003 lymphoblastoid viability; at 92.2 µM (top of the series); note: % is set by controls: 0 for no effect and ±100 for the full control effect; nearly all actives have a fitted effect of over 60% in size
# How it was run: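 Human lymphoblastoid LYMP1-003 cells, 2500/well in complete medium, rested 5 hr at 37 C, then exposed to compounds for 40 hr at 37 C. Viability read as intracellular ATP by CellTiter-Glo luminescence; AC50 from Hill fits of concentration-response data.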
# [3] = Cell Viability - LYMP2-010 (AID 981); note: potency is the fitted concentration of half-maximal effect; nearly all actives have a fitted effect of over 55% in size
# How it was run: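 Human lymphoblastoid LYMP2-010 cells (2500/well) were preincubated 5 hr at 37 C, then exposed to compounds for 24 hr at 37 C in complete medium. Intracellular ATP was measured by CellTiter-Glo luminescence after 30 min at room temperature; AC50 from Hill-fitted concentration-response.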
# [4] = Cell Viability - LYMP2-024 (AID 988); note: potency is the fitted concentration of half-maximal effect; nearly all actives have a fitted effect of over 60% in size
# How it was run: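 Human lymphoblastoid cells (2500/well) in complete medium were preincubated 5 hr at 37 C, then exposed to compounds for 24 hr at 37 C. Intracellular ATP was read by CellTiter-Glo luminescence; AC50 from Hill-equation fits of concentration-response data.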
# [5] = Cellular Toxicity (caspase-3) SK-N-SH (AID 661); settings: SK-N-SH caspase-3 activation, qHTS, DMSO as zero, staurosporine as full; at 91.7 µM (top of the series);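 note: 0% = DMSO basal and 100% = 10 µM staurosporine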
# How it was run: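 SK-N-SH human neuroblastoma cells (1500/well) were treated with compounds for 16 hr at 37 °C in complete medium; caspase 3/7 activity was read by Caspase-Glo luminescence. AC50 came from Hill fits of data normalized to DMSO and 10 uM staurosporine.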
# [6] = Cell Viability - LYMP2-001 (AID 921); settings: LYMP2-001 lymphoblastoid cell viability; activity change, negative = cytotoxic: at 92.2 µM (top of the series); note: potency is the fitted concentration of half-maximal effect; nearly all actives have a fitted effect of over 70% in size
# How it was run: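 Steps: seed 2500 lymphoblastoid cells/well; 5 hr, 37 C; add compound; 24 hr, 37 C; CellTiter-Glo reagent, 30 min room temperature; read luminescence. Concentration-response modeled by Hill equation for AC50.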
# [7] = Cell Viability - LYMP2-019 (AID 973);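 note: 0% = DMSO alone and full effect = 92 µM tetraoctylammonium bromide; nearly all actives have a fitted effect of over 55% in size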
# How it was run: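 Human lymphoblastoid cells were seeded at 2500 cells/well, preincubated 5 hr at 37 C, then exposed to compounds for 24 hr at 37 C in complete medium. Intracellular ATP was measured by CellTiter-Glo luminescence; AC50 from Hill fits.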
# [8] = Cell Viability - LYMP2-021 (AID 974);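 note: compound exposure lasts 24 hours at 37 °C; % is set by controls: 0 for no effect and ±100 for the full control effect; nearly all actives have a fitted effect of over 55% in size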
# How it was run: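 Human lymphoblastoid cells (2500/well) were preincubated 5 hr at 37 C, then exposed to compounds for 24 hr at 37 C in complete medium. Intracellular ATP was read by CellTiter-Glo luminescence; AC50 came from Hill-equation fits of concentration-response data.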
# [9] = qHTS assay to identify small molecules that stimulate interleukin-8 (IL-8) secretion (AID 651758; active = well fitted activation curve with a large enough effect in the signal ratio; inconclusive = small, poorly fitted or top-dose-only effect, or effect the other way, or a change in a side signal; the % refers to the signal ratio; note: 0% is about no effect); settings: HTRF ratio (665/615), at 92.2 µM (top of the series)
# How it was run: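 Secreted IL-8 measured by TR-FRET sandwich (cryptate and XL665 antibodies) from THP-1 cells exposed to compound overnight (16 hrs, 37 C).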
# [10] = Cellular Toxicity (caspase-3) Hek293 (AID 664); settings: HEK293 caspase-3 activation, DMSO = 0%, 100 µM tamoxifen = 100%; at 92.2 µM (top of the series);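 note: cells exposed to compound for 16 h at 37 °C before readout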
# How it was run: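 HEK293 cells were exposed to compounds in complete medium for 16 hr at 37 °C, then caspase-3/7 activity was read by Caspase-Glo 3/7 luminescence after 20 min at room temperature. Data normalized to DMSO and 100 uM tamoxifen; AC50 from Hill fits.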
# [11] = MultiTox-Fluor Cytotoxicity Assay - LYMP1-001 - Live Cells (AID 947); note: potency is the fitted concentration of half-maximal effect
# [12] = Cellular Toxicity (caspase-3) NIH 3T3 (AID 666);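 note: caspase signal read after 16 h compound exposure; 0% = DMSO basal and 100% = 100 µM tamoxifen stimulation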
# How it was run: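 Mouse NIH 3T3 fibroblasts (1000 cells/well) were treated with compound for 16 hr at 37°C in complete medium; caspase-3/7 activity was read by Caspase-Glo luminescence. Normalized to DMSO and 100 uM tamoxifen; AC50 from Hill fits.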
smiles,measurement,setting,value
CC(=O)CC(=O)Nc1ccccc1,caspase-3 activation,[1],inactive: 1.83%
same,"activity change, negative = cytotoxic",[2],inactive: -8.9%
same,Potency,[3],"inconclusive: 39.8 µM [cytotoxic, partial curve]"
same,Potency,[4],"inconclusive: 12.6 µM [cytotoxic, full curve, poor fit]"
CCCCOCCO,caspase-3 activation,[5],inactive: -0.316% and inactive: 1.72%
same,Potency,[6],"inconclusive: 39.8 µM [cytotoxic, partial curve, poor fit]"
same,Potency,[7],inactive
same,Potency,[8],inactive
same,activation,[9],inactive: -1.63%
CCCCCCCCC1CO1 (stereo not drawn),caspase-3 activation,[10],inactive: 0.315%
same,Potency,[11],"inconclusive: 0.631 µM [cytotoxic, full curve, poor fit]"
same,Potency,[8],inactive
Cc1ccc(S(N)(=O)=O)cc1,Potency,[12],inactive
